No constants are given. Whether binding was seen depends on the method and setting. Binding seen in cells or lysates may run through a third protein. Some results given as binding are weak or reduced against the parent protein; the word gives no strength. For part of these data: Where a sequence is shown, tags or fusion partners need not be part of it.
Experiments:
[1] = target: DDX11 (endogenous) (human (endogenous in NOZ and GBC-SD)) (UniProt Q96FC9); test: co-IP; endogenous proteins; NOZ and GBC-SD lysates (NETN buffer), cells with or without gemcitabine (NOZ 250 nM, GBC-SD 400 nM) for 14 h; DDX11 antibody on protein A/G magnetic beads, overnight at 4°C; IgG control; western blot
Flag-DDX11 (human) = Flag-DDX11 (human) (UniProt Q96FC9); test: co-IP; Flag-DDX11 and Myc-PARP1 expressed in NOZ cells for 72 h; total protein incubated with Flag M2 affinity gel; western blot with tag antibodies

Chains of the proteins cited; added tags and fusions are not shown.
UniProt P09874: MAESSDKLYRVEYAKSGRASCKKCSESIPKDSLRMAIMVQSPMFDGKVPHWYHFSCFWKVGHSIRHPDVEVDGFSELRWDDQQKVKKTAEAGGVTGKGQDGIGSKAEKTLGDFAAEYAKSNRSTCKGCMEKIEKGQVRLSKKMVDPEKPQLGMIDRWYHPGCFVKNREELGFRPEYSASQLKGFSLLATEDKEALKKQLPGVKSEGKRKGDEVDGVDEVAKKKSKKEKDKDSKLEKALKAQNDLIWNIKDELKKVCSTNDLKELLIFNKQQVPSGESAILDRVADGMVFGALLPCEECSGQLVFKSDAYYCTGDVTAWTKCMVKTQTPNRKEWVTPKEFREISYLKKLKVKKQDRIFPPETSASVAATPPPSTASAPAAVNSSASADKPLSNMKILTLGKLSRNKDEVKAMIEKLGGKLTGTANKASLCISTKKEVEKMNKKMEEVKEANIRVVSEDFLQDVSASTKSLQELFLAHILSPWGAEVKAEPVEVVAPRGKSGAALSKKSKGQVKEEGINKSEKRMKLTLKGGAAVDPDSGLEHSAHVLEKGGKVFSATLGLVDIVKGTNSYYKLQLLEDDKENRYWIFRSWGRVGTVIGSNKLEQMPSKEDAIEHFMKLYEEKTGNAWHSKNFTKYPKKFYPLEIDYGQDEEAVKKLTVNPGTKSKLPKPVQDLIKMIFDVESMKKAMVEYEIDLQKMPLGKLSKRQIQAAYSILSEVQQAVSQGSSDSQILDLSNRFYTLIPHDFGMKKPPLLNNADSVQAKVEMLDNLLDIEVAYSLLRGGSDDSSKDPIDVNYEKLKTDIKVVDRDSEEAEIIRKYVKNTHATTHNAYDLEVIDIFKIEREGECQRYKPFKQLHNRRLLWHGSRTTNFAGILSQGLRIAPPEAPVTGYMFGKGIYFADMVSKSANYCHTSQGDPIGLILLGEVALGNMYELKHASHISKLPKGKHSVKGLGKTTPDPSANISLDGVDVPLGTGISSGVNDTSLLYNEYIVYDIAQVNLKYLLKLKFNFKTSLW

| Substance | binding [1] | binding (Flag-DDX11 (human)) |
| --- | --- | --- |
| Ku70/80 (from UniProt P12956 1-609; P13010 1-732) (complex) | binds | – |
| Myc-PARP1 (from UniProt P09874 1-1014) | – | binds |
| PARP1 (endogenous) (from UniProt P09874 1-1014) | binds | – |

Source: paper PMC13191460
